{
  "source": "patent US20180214393A1",
  "about": "“METHODS FOR TREATING CANCER” (RADIUS PHARMACEUTICALS, INC., priority 2015, published 2018)",
  "system": "ovariectomized rats",
  "test": "BMD in ovariectomized rats (dual emission x-ray absorptiometry)",
  "type": "in vivo, Sprague-Dawley rats",
  "conditions": "E2 0.01 mg/kg; RAD1901 0.1-3 mg/kg, once daily 4 weeks",
  "procedure": "As a model of postmenopausal bone loss, ovariectomy was performed on anesthetized adult female Sprague-Dawley rats, with sham surgery as a control. […] Animals in the sham surgery group were vehicle treated. All animals were euthanized by carbon dioxide inhalation 24 hours after the final dose. Bone mineral density was assessed at baseline and again after 4 weeks of treatment using PIXImus dual emission x-ray absorptiometry.",
  "note": "For at least one compound, name, drawing or mass did not settle the structure.",
  "data": [
    {"smiles": "C[C@]12CC[C@@H]3c4ccc(O)cc4CC[C@H]3[C@@H]1CC[C@@H]2O", "note": "[E2, estradiol, reference compound]", "values": [
      {"measurement": "ovariectomy-induced bone loss (BMD femur and spine)", "value": "prevention of bone loss"}
    ]}
  ]
}
